# PubChem BioAssay AID1347076 (National Center for Advancing Translational Sciences (NCATS), 2019)
# Among all 400,000 compounds or so, about 13,000 (3.2%) were called active. Inconclusive means that the source gave no clear call. Such entries were picked first, then a sample of the others. The call rests on the fitted dose curve; in most records, active means well fitted cell-killing curve with a large enough effect; inconclusive means small, poorly fitted or top-dose-only effect, or effect the other way; inactive means flat fitted curve, though single readings scatter. Potencies of inconclusive entries are doubtful fits and often do not repeat.
# Experiment: qHTS assay for MDR1-selective chemotherapeutics: Primary screen using the drug-selected MDR subline cells KB-V1; further: nearly all actives have a fitted effect of over 60% in size
# Conditions: KB-V1 MDR cells viability, CellTiter-Glo, 72 h; series mostly up to 46.1 µM
# How it was run: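 KB-V1 MDR subline cells in DMEM (phenol-red free, 10% FBS) exposed to compounds in qHTS concentration series for 72 h at 37 degrees C. Viability read by CellTiter-Glo luminescence; concentration-effect curves fitted after normalization and correction.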
# Potency means the concentration at half of the fitted maximal effect.
row,SMILES,Potency
1,COc1ccc(CCNC(=O)CSc2nn3c(=O)c(C)nnc3s2)cc1OC,"inconclusive: 29.1 µM [rising, single point]"
2,COCCn1c(SCC(=O)c2ccccc2)nc2c(c1=O)SC(C)C2 (stereo unspecified),"inconclusive: 10.3 µM [cytotoxic, partial curve]"
3,CC(C)NS(=O)(=O)c1ccc(CCC(=O)N2CCc3ccccc3C2)cc1,"inconclusive: 2.06 µM [cytotoxic, full curve]"
4,CCOc1ccc(NC(=O)c2ccc3c(c2)S(=O)(=O)N=C2CCCCCN23)cc1,inactive
5,CC(C)N=C1CCCC1C(=S)SSC(=S)C1CCCC1=NC(C)C (stereo unspecified),"inconclusive: 29.1 µM [cytotoxic, single point]"
6,CC(C)c1ccc(NC(=O)c2ccccc2NC(=O)C2CC=CCC2C(=O)O)cc1 (stereo unspecified),"inconclusive: 20.6 µM [rising, partial curve, poor fit]"
7,O=C(NCC(c1cccnc1)N1CCOCC1)C(=O)Nc1cccc(Cl)c1 (stereo unspecified),inactive
8,O=C(N/N=C/c1cccs1)c1cncc(Br)c1,inactive
9,O=C(N/N=C/c1cccs1)c1cc(C2CC2)nc2ccccc12,"inconclusive: 25.9 µM [cytotoxic, single point]"
10,C/C(=N\NC(=O)C12CCC(C)(C(=O)O1)C2(C)C)c1ccccc1O (stereo unspecified),"inconclusive: 5.17 µM [cytotoxic, full curve]"
11,Cc1cc(C)nc(Nc2nc3ccccc3s2)n1,inactive
12,C#Cc1ccc(NC(=O)C2(C)CCN2C(=O)Cc2ccc(C(C)(C)C)cc2)cc1 (stereo unspecified),inactive
13,Cc1cc(C(=O)Nc2ccncc2)c(C)o1,"inconclusive: 20.6 µM [cytotoxic, single point]"
14,CN1CCc2nc(NC(=O)c3cccc(S(=O)(=O)N4CCc5ccccc54)c3)sc2C1,inactive
15,Cc1ccc(NC(=O)COc2ccccc2C(=O)Nc2ccccc2)cc1Cl,inactive
16,CCOC(=O)CC1COCCN1C(=O)c1cc(COc2ccccc2SC)on1 (stereo unspecified),"inconclusive: 20.6 µM [cytotoxic, single point]"
17,O=C(Nc1ccccc1C(=O)O)c1cccc(F)c1,inactive
18,CCC(C)N(CC(=O)Nc1cccc(C)c1C)C(=O)CCl (stereo unspecified),"inconclusive: 18.4 µM [cytotoxic, single point]"
19,COc1ccc(CCNC(=O)C(=O)NCC2OCCCN2S(=O)(=O)c2cc(C)ccc2C)cc1 (stereo unspecified),"inconclusive: 6.51 µM [cytotoxic, partial curve]"
20,Cc1cc(C(=O)NC2CCCc3c2cnn3-c2cc(F)cc(F)c2)nn1C (stereo unspecified),"inconclusive: 10.3 µM [cytotoxic, partial curve]"
21,NS(=O)(=O)c1ccc(NC(=S)NC(=O)c2cccs2)cc1,inactive

# 2 entries drawn at random from the list so far, as already listed:
row,SMILES,Potency
11,Cc1cc(C)nc(Nc2nc3ccccc3s2)n1,inactive
12,C#Cc1ccc(NC(=O)C2(C)CCN2C(=O)Cc2ccc(C(C)(C)C)cc2)cc1 (stereo unspecified),inactive
